The target of assay [1] is Adenosine triphosphate (ATP)-citrate lyase (ACLY) (human (endogenous in Huh7)) (UniProt P53396). The assay can be described thus: affinity purification with mass spectrometry; Co-IP of ACLY followed by mass spectrometry; cells and antibody not named.
Assay [2] deals with SEC63 (human (endogenous in Huh7)) (UniProt Q9UGP8). Kind of assay: affinity purification with mass spectrometry; SEC63-interacting proteins upon ER stress identified by liquid chromatography-tandem mass spectrometry.

Amino acid sequences for entries named in this document (tags omitted).
UniProt P53396: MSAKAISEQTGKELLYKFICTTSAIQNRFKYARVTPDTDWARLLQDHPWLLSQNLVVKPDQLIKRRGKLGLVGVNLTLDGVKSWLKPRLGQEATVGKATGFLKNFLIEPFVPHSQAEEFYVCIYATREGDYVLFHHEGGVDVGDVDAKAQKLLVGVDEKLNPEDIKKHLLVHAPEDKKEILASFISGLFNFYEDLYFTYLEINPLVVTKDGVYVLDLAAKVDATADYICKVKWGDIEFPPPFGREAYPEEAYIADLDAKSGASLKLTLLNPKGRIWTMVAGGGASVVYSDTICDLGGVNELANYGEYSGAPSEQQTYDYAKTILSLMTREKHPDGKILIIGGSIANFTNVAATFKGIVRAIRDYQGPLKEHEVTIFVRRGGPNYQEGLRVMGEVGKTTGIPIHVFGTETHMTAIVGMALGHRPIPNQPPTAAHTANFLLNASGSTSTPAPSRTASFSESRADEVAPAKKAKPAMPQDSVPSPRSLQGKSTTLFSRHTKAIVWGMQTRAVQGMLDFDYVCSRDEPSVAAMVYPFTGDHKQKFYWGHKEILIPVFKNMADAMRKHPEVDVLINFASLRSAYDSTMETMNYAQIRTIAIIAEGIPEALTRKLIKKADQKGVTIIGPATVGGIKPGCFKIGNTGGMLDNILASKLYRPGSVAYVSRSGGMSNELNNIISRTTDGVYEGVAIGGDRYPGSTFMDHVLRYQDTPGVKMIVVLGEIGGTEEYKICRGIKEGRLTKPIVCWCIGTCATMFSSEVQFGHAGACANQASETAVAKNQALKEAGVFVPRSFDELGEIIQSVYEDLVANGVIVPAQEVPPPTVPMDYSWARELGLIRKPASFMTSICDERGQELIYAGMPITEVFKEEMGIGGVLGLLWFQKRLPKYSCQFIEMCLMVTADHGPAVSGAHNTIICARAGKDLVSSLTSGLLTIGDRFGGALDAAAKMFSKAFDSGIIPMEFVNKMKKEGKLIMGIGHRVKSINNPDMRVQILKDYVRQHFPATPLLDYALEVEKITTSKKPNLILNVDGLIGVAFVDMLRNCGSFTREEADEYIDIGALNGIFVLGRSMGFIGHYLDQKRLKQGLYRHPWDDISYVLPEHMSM
UniProt Q9UGP8: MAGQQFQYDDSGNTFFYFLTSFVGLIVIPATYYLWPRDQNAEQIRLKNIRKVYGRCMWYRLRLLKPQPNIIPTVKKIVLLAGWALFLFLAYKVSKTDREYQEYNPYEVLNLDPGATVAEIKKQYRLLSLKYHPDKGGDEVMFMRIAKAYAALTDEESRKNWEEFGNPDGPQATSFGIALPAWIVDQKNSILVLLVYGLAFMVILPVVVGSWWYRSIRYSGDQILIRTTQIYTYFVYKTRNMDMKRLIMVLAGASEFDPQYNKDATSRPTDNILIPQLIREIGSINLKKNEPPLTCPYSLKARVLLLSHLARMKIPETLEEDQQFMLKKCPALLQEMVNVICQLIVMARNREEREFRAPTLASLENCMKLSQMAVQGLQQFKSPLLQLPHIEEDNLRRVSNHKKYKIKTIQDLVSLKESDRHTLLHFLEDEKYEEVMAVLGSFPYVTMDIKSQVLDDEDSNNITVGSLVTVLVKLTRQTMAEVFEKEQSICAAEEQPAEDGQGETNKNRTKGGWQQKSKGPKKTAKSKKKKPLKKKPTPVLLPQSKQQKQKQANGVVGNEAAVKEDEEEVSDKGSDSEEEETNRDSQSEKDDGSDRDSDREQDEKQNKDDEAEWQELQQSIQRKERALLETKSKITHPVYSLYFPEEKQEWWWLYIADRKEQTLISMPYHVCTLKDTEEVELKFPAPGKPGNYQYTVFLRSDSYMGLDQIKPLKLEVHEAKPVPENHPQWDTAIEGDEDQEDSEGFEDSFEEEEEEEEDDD
UniProt P84022: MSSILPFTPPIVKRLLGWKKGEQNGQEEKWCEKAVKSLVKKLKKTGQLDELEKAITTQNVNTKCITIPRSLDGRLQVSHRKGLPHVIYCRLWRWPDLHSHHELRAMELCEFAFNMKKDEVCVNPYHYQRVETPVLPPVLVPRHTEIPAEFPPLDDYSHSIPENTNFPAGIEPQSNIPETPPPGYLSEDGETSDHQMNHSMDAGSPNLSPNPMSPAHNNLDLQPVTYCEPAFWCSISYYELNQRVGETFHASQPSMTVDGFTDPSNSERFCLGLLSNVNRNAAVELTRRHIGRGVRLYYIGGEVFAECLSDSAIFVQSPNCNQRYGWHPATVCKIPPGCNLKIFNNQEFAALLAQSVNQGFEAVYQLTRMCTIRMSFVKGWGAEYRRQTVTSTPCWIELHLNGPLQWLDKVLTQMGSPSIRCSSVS

Results are given in words; binding and its absence hold for the method and conditions named. Binding seen in cells or lysates may run through a third protein. Here binding means that the protein was enriched with, or labelled near, the bait; the list need not be complete.

Turning to SEC63 (from UniProt Q9UGP8 1-760), in assay [1], the binding result is recorded as “binds”.
Take SMAD3 (from UniProt P84022 1-425): the binding entry in assay [2] is “binds”.

For the origin of these results see publication PMC10150531.
